Some of the results follow. Small differences around the control level are noise.
System: ppGalNAc-T3 sensor
Experiment: T3 sensor activation Q score (MG/GFP ratio z-score vs DMSO controls) (SD units); higher = more sensor activation (inhibition of ppGalNAc-T3 glycosylation)
Conditions: HEK293 sensor cells; 10 µM; 6 h
Procedure: (§1)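 Cells were treated with compound at 10 uM for 6 h, then MG/GFP ratio was read by flow cytometry (10,000 cells per well, duplicate wells). Q = (R - R_neg)/SD_neg relative to DMSO vehicle controls; the signal rises when the glycosyltransferase is inhibited.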

| Structure (SMILES) | T3 sensor activation Q score |
| --- | --- |
| Cc1ccc(CN2CCN(c3ccc(F)cc3)CC2)cc1 | -0.165 |
| Fc1ccc(N2CCN(Cc3ccc(F)cc3F)CC2)cc1 | -0.33 |
| CC(=O)c1ccc(N2CCN(Cc3cccc(F)c3)CC2)cc1 | -0.295 |
| CN1CCN(Cc2cccc(Cl)c2Cl)CC1 | 0.15 |
| CN1CCN(Cc2ccc(Cl)cc2)CC1 | -0.46 |
| CCN1CCN(Cc2ccc(OC)c(C)c2)CC1 | -0.355 |
| CN(C)c1ccc(CN2CCN(c3ccccc3Cl)CC2)cc1 | 0.15 |
| COc1ccccc1N1CCN(Cc2ccccc2C)CC1 | 0.205 |
| O=[N+]([O-])c1ccc(CN2CCN(c3cccc(Cl)c3)CC2)cc1 | 0.14 |
| COc1ccccc1CN1CCN(c2ccc([N+](=O)[O-])cc2)CC1 | 0.025 |
| COc1ccc(CN2CCN(c3ccc(OC)cc3)CC2)cc1 | 0.165 |
| Cc1ccccc1CN1CCN(Cc2ccc3c(c2)OCO3)CC1 | -0.49 |
| CCOc1ccccc1CN1CCN(c2ccccc2C)CC1 | 0.23 |
| COc1cc(CN2CCN(c3ccccc3)CC2)cc(OC)c1O | 0.43 |
| O=[N+]([O-])c1cccc(CN2CCN(c3ccccc3)CC2)c1 | -0.2 |
| O=[N+]([O-])c1ccc(N2CCN(Cc3ccc(Cl)cc3)CC2)cc1 | 0.265 |
| O=c1[nH]c2c(c(=O)n1C1CCCCC1)CCC2 | -0.035 |
| Cc1cc(Br)c2[nH]cc(CCN)c2c1 | 0.05 |
| COc1ccccc1CN1CCN(c2cc(C)ccc2C)CC1 | -0.03 |
| Fc1ccc(F)c(CN2CCN(c3ccccc3F)CC2)c1 | 0.235 |
| Clc1cccc(N2CCN(Cc3ccc4c(c3)OCO4)CC2)c1 | 0.07 |
| COc1ccc(CN2CCN(c3ccccc3)CC2)cc1C | -0.495 |
| CCN1CCN(Cc2cc(C)ccc2C)CC1 | 0.56 |
| Clc1ccccc1N1CCN(Cc2ccccc2)CC1 | 0.21 |
| COc1ccc(CN2CCN(CCO)CC2)cc1Br | -0.09 |
| COc1ccc(O)c(CN2CCN(c3cc(C)ccc3C)CC2)c1 | -0.24 |
| COc1ccc(CN2CCN(c3ccccc3F)CC2)c(C)c1C | 1 |
| COc1ccc(CN2CCN(c3ccc(F)cc3)CC2)cc1OC | -0.01 |
| CCN1CCN(Cc2ccc(C)cc2)CC1 | -0.185 |
| C/C(=C\c1ccc(Cl)cc1)[N+](=O)[O-] | -0.575 |

Arranged by number of heavy atoms (smallest number first): some entries from above

| Structure (SMILES) | T3 sensor activation Q score |
| --- | --- |
| COc1ccccc1N1CCN(Cc2ccccc2C)CC1 | 0.205 |
| COc1ccccc1CN1CCN(c2cc(C)ccc2C)CC1 | -0.03 |
| COc1ccccc1CN1CCN(c2ccc([N+](=O)[O-])cc2)CC1 | 0.025 |

System: ppGalNAc-T2 sensor
Experiment: T2 sensor activation Q score (MG/GFP ratio z-score vs DMSO controls) (SD units); higher = more sensor activation (inhibition of ppGalNAc-T2 glycosylation)
Conditions: HEK293 sensor cells; 10 µM; 6 h
Procedure: as §1

| Structure (SMILES) | T2 sensor activation Q score |
| --- | --- |
| Cc1ccc(CN2CCN(c3ccc(F)cc3)CC2)cc1 | -0.29 |
| Fc1ccc(N2CCN(Cc3ccc(F)cc3F)CC2)cc1 | 0.04 |
| CC(=O)c1ccc(N2CCN(Cc3cccc(F)c3)CC2)cc1 | 0.53 |
| CN1CCN(Cc2cccc(Cl)c2Cl)CC1 | 0.24 |
| CCC1CN(C)CCC1(O)c1ccccc1 (stereo not given) | -0.905 |
| CN1CCN(Cc2ccc(Cl)cc2)CC1 | 1.18 |
| CCN1CCN(Cc2ccc(OC)c(C)c2)CC1 | -0.415 |
| CN(C)c1ccc(CN2CCN(c3ccccc3Cl)CC2)cc1 | 0.335 |
| COc1ccccc1N1CCN(Cc2ccccc2C)CC1 | -0.175 |
| O=[N+]([O-])c1ccc(CN2CCN(c3cccc(Cl)c3)CC2)cc1 | 0.185 |
| Fc1cccc(CN2CCN(c3ccccc3)CC2)c1 | -0.37 |
| COc1ccccc1CN1CCN(c2ccc([N+](=O)[O-])cc2)CC1 | -0.67 |
| COc1ccc(CN2CCN(c3ccc(OC)cc3)CC2)cc1 | 0.26 |
| Cc1ccccc1CN1CCN(Cc2ccc3c(c2)OCO3)CC1 | -0.75 |
| CCOc1ccccc1CN1CCN(c2ccccc2C)CC1 | -0.18 |
| COc1cc(CN2CCN(c3ccccc3)CC2)cc(OC)c1O | -0.065 |
| O=[N+]([O-])c1cccc(CN2CCN(c3ccccc3)CC2)c1 | -0.21 |
| O=[N+]([O-])c1ccc(N2CCN(Cc3ccc(Cl)cc3)CC2)cc1 | -0.375 |

| Structure (SMILES) | T2 sensor activation Q score |
| --- | --- |
| O=c1[nH]c2c(c(=O)n1C1CCCCC1)CCC2 | -0.175 |
| COc1ccc(CN2CCN(c3ccc(F)cc3)CC2)cc1C | -0.175 |
| Cc1ccccc1CN1CCN(c2ccc([N+](=O)[O-])cc2)CC1 | 0.215 |
| Cc1cc(Br)c2[nH]cc(CCN)c2c1 | -0.12 |
| COc1ccccc1CN1CCN(c2cc(C)ccc2C)CC1 | 0.64 |
| Fc1ccc(F)c(CN2CCN(c3ccccc3F)CC2)c1 | 0.735 |
| Clc1cccc(N2CCN(Cc3ccc4c(c3)OCO4)CC2)c1 | 0.49 |
| COc1ccc(CN2CCN(c3ccccc3)CC2)cc1C | -1.08 |
| CCN1CCN(Cc2cc(C)ccc2C)CC1 | 0.965 |
| Clc1ccccc1N1CCN(Cc2ccccc2)CC1 | -0.145 |
| COc1ccc(CN2CCN(CCO)CC2)cc1Br | -0.335 |
| COc1ccc(O)c(CN2CCN(c3cc(C)ccc3C)CC2)c1 | -2.15 |
| COc1ccc(CN2CCN(c3ccccc3F)CC2)c(C)c1C | -0.115 |
| COc1ccc(CN2CCN(c3ccc(F)cc3)CC2)cc1OC | -0.73 |
| Cc1ccccc1N1CCN(Cc2ccc(O)cc2)CC1 | 1.36 |
| CCN1CCN(Cc2ccc(C)cc2)CC1 | -0.55 |
| C/C(=C\c1ccc(Cl)cc1)[N+](=O)[O-] | -0.215 |
